Data as given in PubChem BioAssay AID1259308 (NCATS, 2017)
The whole screen tested about 59,000 reagents; this is an unselected part. About 1,510 of all reagents (2.6%) count as active. 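Calls use total luciferase alone and ignore viability, so some active siRNAs may act by altering cell number.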 Unmarked entries are inactive. Reagents against one gene are numbered here. No sequences are given here.

Test: 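Candidate targets for better recombinant protein yield in mammalian cells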 (primary screen)
Cells: human HEK293 embryonic kidney cells stably expressing firefly luciferase (HEK-CMV-Luc2-Hygro)
Reagent: single siRNA against human genes, 0.8 pmol siRNA per well
Duration: 72 h
Measurement: 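Reporter luminescence and viable-cell signal on separate replicate plates, given as percent of non-targeting control and median/MAD z-scores, plus per-cell luciferase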
Direction: total luciferase, z-score and total luciferase, % of control: higher = more reporter protein produced; luciferase per cell, z-score: higher = more reporter output per viable cell; viable cells, % of control: higher = more viable cells
Call rule: 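An siRNA counts as active if its total luciferase robust z-score exceeds 3; genes with two or more such siRNAs out of three were retested with fresh siRNAs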
Meaning of the calls: active = raised luciferase; inactive = no rise

| Gene | reagent no. | total luciferase, z-score | total luciferase, % of control | luciferase per cell, z-score | viable cells, % of control |
| --- | --- | --- | --- | --- | --- |
| CD86 (GeneID 942) | 1 | -0.431 | 73.3 | -0.221 | 86.8 |
| CD86 (GeneID 942) | 2 | -1.11 | 59.9 | -1.63 | 103 |
| CD86 (GeneID 942) | 3 | 1.73 | 116 | 2.07 | 75.4 |
| UCK1 (GeneID 83549) | 1 | 0.191 | 85.7 | 1.22 | 69.4 |
| UCK1 (GeneID 83549) | 2 | 1.66 | 115 | 1.45 | 87.7 |
| UCK1 (GeneID 83549) | 3 | 1.21 | 106 | 2.22 | 66 |
| HGFAC (GeneID 3083) | 1 | -0.755 | 66.9 | -0.689 | 89.6 |
| HGFAC (GeneID 3083) | 2 | -2.11 | 39.9 | -2.24 | 80.5 |
| HGFAC (GeneID 3083) | 3 | -0.839 | 65.2 | -0.509 | 83.3 |
| SUSD5 (GeneID 26032) | 1 | -0.458 | 72.8 | 1.06 | 61.5 |
| SUSD5 (GeneID 26032) | 2 | -0.789 | 66.2 | -0.523 | 84.9 |
| SUSD5 (GeneID 26032) | 3 | 1.71 | 116 | 1.24 | 93.4 |
| LIAT1 (GeneID 400566) | 1 | -1.12 | 59.7 | -0.538 | 76.8 |
| LIAT1 (GeneID 400566) | 2 | 0.66 | 95 | 0.517 | 92.7 |
| LIAT1 (GeneID 400566) | 3 | 0.562 | 93.1 | 0.567 | 89.6 |
| KDSR (GeneID 2531) | 1 | -0.215 | 77.6 | -0.24 | 92.4 |
| KDSR (GeneID 2531) | 2 | -1.34 | 55.2 | -1.7 | 96.4 |
| KDSR (GeneID 2531) | 3 | 1.17 | 105 | 1.72 | 74.8 |
| RD3L (GeneID 647286) | 1 | 0.374 | 89.3 | 0.188 | 95 |
| RD3L (GeneID 647286) | 2 | -0.777 | 66.4 | -0.377 | 82 |
| RD3L (GeneID 647286) | 3 | 0.808 | 98 | -0.126 | 113 |
| RASSF4 (GeneID 83937) | 1 | 0.186 | 85.6 | 0.727 | 79 |
| RASSF4 (GeneID 83937) | 2 | 1.05 | 103 | 0.83 | 92.3 |
| RASSF4 (GeneID 83937) | 3 | -0.369 | 74.6 | -0.663 | 99.2 |
| PMAIP1 (GeneID 5366) | 1 | 0.572 | 93.3 | -0.416 | 116 |
| PMAIP1 (GeneID 5366) | 2 | -2.43 | 33.5 | -1.55 | 56.4 |
| PMAIP1 (GeneID 5366) | 3 | 3.43 (active) | 150 | 2.13 | 95.6 |
| PATE2 (GeneID 399967) | 1 | 0.615 | 94.1 | -0.271 | 113 |
| PATE2 (GeneID 399967) | 2 | -0.488 | 72.2 | -0.572 | 93.8 |
| PATE2 (GeneID 399967) | 3 | 0.0509 | 82.9 | 0.945 | 72.2 |
| LOC646629 (GeneID 646629) | 1 | -0.653 | 68.9 | -0.295 | 83.2 |
| LOC646629 (GeneID 646629) | 2 | -1.32 | 55.6 | -0.92 | 79.2 |
| LOC646629 (GeneID 646629) | 3 | -0.658 | 68.8 | 0.0482 | 75.9 |
| ZNF136 (GeneID 7695) | 1 | -0.362 | 74.7 | -0.662 | 99.3 |
| ZNF136 (GeneID 7695) | 2 | -1.1 | 60.1 | -0.841 | 83.8 |
| ZNF136 (GeneID 7695) | 3 | -0.196 | 78 | 0.478 | 76.8 |
| XPC (GeneID 7508) | 1 | 0.437 | 90.6 | 0.831 | 81.3 |
| XPC (GeneID 7508) | 2 | 2.8 | 138 | 2.68 | 76 |
| XPC (GeneID 7508) | 3 | -0.457 | 72.8 | -0.484 | 92.4 |
